US5298494A, “Monosaccharides having anti-proliferation and anti-inflammatory activity, compositions and uses thereof” (Greenwich Pharmaceuticals Incorporated, priority 1993, dated 1994)
At least one read-out could not be matched to a standard name with certainty.

Tested on: T cell proliferation in mouse spleen cell mixed lymphocyte cultures
Assay: Mixed Lymphocyte Reaction (MLR) assay
Type: cell-based, mouse (Balb/c responder, C57B1/6 stimulator)
Details: Table X
Text: The pharmacologic assays performed to determine the immunomodulatory effects of the experimental compounds in vitro include the Mixed Lymphocyte Reaction (MLR) and the ConA blastogenesis assay. These assays were used to determine the inhibitory effects of the compounds of the invention on T lymphocyte activation and proliferation. Since inflammation at the cellular level is characterized by T lymphocyte recruitment, activation and proliferation, these assays are appropriate to use as screens for novel compounds having therapeutic potential in the treatment of disorders in which inflammatory mechanisms are involved.
The MLR is a classical assay used to measure T cell function by studying the proliferative response of T cells which are activated in vitro by genetically disparate stimulator cells. This is accomplished by co-culturing spleen cells from two different strains of mice. Splenic T cell proliferation occurs as a result of cellular activation signals generated by the ongoing cellular interactions.
Balb/c mice were euthanised by cervical dislocation and their spleens removed. Single cell suspensions of the spleens were prepared in culture medium (hepes buffered RPMI-1640 supplemented with 10% fetal calf serum, 2mM glutamine, 500 units penicillin/ streptomycin, and 4×10^-5 M 2-mercaptoethanol) using a Teflon pestle. The cells were centrifuged at 1500 rpm and the pellets resuspended in ACT (0.15M tris, 0.14M ammonium chloride, pH 7.2) in order to lyse the red blood cells. After a 5 minute incubation in a 37 C. waterbath, the cells were resuspended in culture medium and counted. C57B1/6 spleen cells which were used as stimulator cells, were also prepared by this method. The stimulator cells were treated with 100 ug/ml of mitomycin c for 1 hour at 37 C. (to inhibit stimulatory cell proliferation) and were then washed 5 times in culture medium. The proliferative responses were measured by culturing 2.5×10^5 responder cells with 5×10^5 stimulatory cells in 96 well microtiter plates in the presence or absence of various doses of test compounds or vehicle (DMSO). Syngeneic control cultures using mitomycin c treated Balb/c spleen cells as stimulator cells were also run. All cultures were run in triplicate.
Solutions of compounds of the present invention in DMSO were prepared at a stock concentration of 120 Mm. Dilutions were made in culture medium to the following concentrations: 3, 10, 30, 100, and 300 uM. The vehicle (DMSO) was used as a negative control.
After incubation of for 5 days at 37 C. with 5% CO2, the amount of cell proliferation was measured by adding 20 ul of MTT (3-[4,5-dimethylthiazol-2-yl]-2,5diphenyl-tetrazolium bromide) (10 mg/ml in phosphate buffered saline) to each well. Plates were incubated for 4 hours at 37 C., after which 180 ul of 10% sodium dodecyl sulphate in phosphate buffered saline was added. After an overnight incubation, the optical density (OD) of each well was read on a Molecular Devices microplate reader at 570-650 nm. The results were determined by calculating the difference between the means of the allogeneic cultures and the means of the syngenic cultures for each test article concentration. Differences of the test article groups were compared to the control group and the percent change from the control was determined.

| Structure (SMILES) | Mean O.D. Allogenic (3 ugm) | Mean O.D. Syngeneic (3 ugm) | Mean O.D. Allogenic (100 ugm) | Mean O.D. Syngeneic (100 ugm) | Mean O.D. Allogenic (300 ugm) | Mean O.D. Syngeneic (300 ugm) |
| --- | --- | --- | --- | --- | --- | --- |
| CCCCCCCCCCCCOC1C(C(O)CO)OC2OC(C)(C)OC21 [IIa, 1,2-O-Isopropylidene-3-O-n-dodecyl-α-D-glucofuranose] | 0.184 O.D. | 0.117 O.D. | 0.024 O.D. | 0.012 O.D. | 0.025 O.D. | 0.022 O.D. |
| CCCCCCCOCCCO[C@@H]1[C@H]2OC(C)(C)O[C@H]2O[C@@H]1[C@H](O)CO [IIg] | 0.137 O.D. | 0.078 O.D. | 0.057 O.D. | 0.058 O.D. | 0.026 O.D. | 0.022 O.D. |
